In all, about 210,000 compounds went through this assay and about 5,900 (2.8%) were called active. Inconclusive results (about 5%) are left out. Calls come from the whole dose curve; as a rule, active = well fitted activation curve with a large enough effect; inconclusive = small, poorly fitted or top-dose-only effect; inactive = no such curve, though single readings can be large or run the other way. Only a part is listed here, and it is no random draw. The source gives no active or inactive call for entries shown without one.
Assay: qHTS Assay for Enhancers of SMN2 Splice Variant Expression; note: nearly all actives have a fitted effect of over 55% in size; for activity change, positive = activation: % of control where 0% means no effect
Conditions: HEK293 SMN2-luciferase splicing reporter, luminescence, 30-36 h; activity change, positive = activation: at 46.1 µM (top of the series) unless noted
Summary of the method: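 HEK293 cells carry an SMN2 […]–luciferase reporter in which exon 7 inclusion puts luciferase in frame. Cells were plated 10-12 h before compound addition, then incubated 30-36 h at 37C. ONE-Glo luminescence was read; sodium butyrate at 4.5 mM final served as control.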
CC(c1ccco1)N(C(=O)c1ccc(C#N)cc1)c1ccccn1 (stereo unspecified) gave an activity change, positive = activation of 27.7%. COc1ccc(C(=O)Nn2c(SCc3cccc([N+](=O)[O-])c3)nc3ccccc3c2=O)cc1 gave an activity change, positive = activation of -49.7%. For CSc1nc(C)c2c(n1)N(c1cccc(C)c1)CC2, the activity change, positive = activation was 24.1%. In the case of CC(C(=O)N=c1sc2ccccc2n1C)N1C(=O)C2CC=CCC2C1=O (stereo unspecified), the activity change, positive = activation is reported as 26.8%. With CCOC(=O)Cc1csc(NC(=O)CCS(=O)(=O)Cc2ccccc2)n1 the activity change, positive = activation was 40.4%. Work on c1ccc2nc(-c3nc4ccccc4o3)ccc2c1 yielded an activity change, positive = activation of -46.3%. Cc1ccc(C(=O)NC(C)c2ccccc2)cc1Br (stereo unspecified) gave an activity change, positive = activation of -0.816%. With Nc1c(-c2ccc(Cl)cc2)nnn1-c1ccccc1 the activity change, positive = activation was 168%. For O=C(Nc1ccc(O)cc1)c1c(O)c2c([nH]c1=O)CCCC2, the Potency was active: 11.2 µM. With O/N=C1/CCc2cccc3cccc1c23 the activity change, positive = activation was 30%. Work on COC(=O)C1C(c2ccccc2)C(C(=O)N2CCN(C)CC2)C1c1ccccc1 (stereo unspecified) yielded an activity change, positive = activation of 7.46%. Cc1noc2ncnc(Sc3ccccc3Cl)c12 showed an activity change, positive = activation of 37.6%. Work on Cc1cc(S(=O)(=O)N2CCCC2)ccc1OCC(=O)NCc1ccco1 yielded an activity change, positive = activation of 39.3%. Work on CC(C)(C)c1ccc(NC(=O)COc2ccc(-n3ccnc3)cc2)cc1 yielded an activity change, positive = activation of -89.9%. In the case of Cc1cc2n(n1)C(c1ccc3c(c1)OCO3)Nc1c(C)cccc1-2 (stereo unspecified), the Potency is reported as active: 3.98 µM. In the case of CCc1ccc(C(=O)Nc2cc3c(cc2Cl)OCCCO3)cc1, the Potency is reported as active: 25.1 µM. With COc1ccccc1Nc1nc(-c2ccc3c(c2)NC(=O)CO3)cs1 the “activity change, positive = activation” value was inactive: -95.5%. With O=C(Nc1nc(-c2ccc(S(=O)(=O)N3CCCCCC3)cc2)cs1)c1cccs1 the “activity change, positive = activation” value was inactive: -52%. COc1ccc(NC(=O)c2[nH]c(C)c(C(C)=O)c2C)cc1 gave an activity change, positive = activation of 402%. With CCOC(=O)c1ccc(NC(=O)c2cc(S(=O)(=O)N3CCOCC3)ccc2O)cc1 the “activity change, positive = activation” value was inactive: -46.9%. In the case of COC(=O)CN(c1ccccc1F)S(=O)(=O)c1ccccc1, the activity change, positive = activation is reported as 69.9%. In the case of O=C(CN1C(=O)COc2ccc(Cl)cc21)Nc1ccc2c(c1)OCCO2, the activity change, positive = activation is reported as 25%. In the case of Nc1cccc(C(=O)N/N=C/c2ccsc2)c1, the activity change, positive = activation is reported as 35.5%. Cc1ccc(-n2[nH]c(C)c(C=Nc3ccc(C)cn3)c2=O)cc1 showed an activity change, positive = activation of 33.6%. Work on O=c1c2cc(Cl)ccc2[nH]c(=S)n1Cc1ccccn1 yielded an activity change, positive = activation of 13.5%. C=CCNC(=O)CCCC(=O)NCC=C gave an activity change, positive = activation of 33.3%. With O=C(c1ccc(S(=O)(=O)N2CCOCC2)cc1)N(c1cccc(Cl)c1)C1C=CS(=O)(=O)C1 (stereo unspecified) the “activity change, positive = activation” value was inactive: -32.1%. With Cn1c(O)c(N=NC(=O)c2ccco2)c2ccccc21 the Potency was active: 10 µM. In the case of N#CC1=C(N)Oc2n[nH]c(-c3ccc(F)cc3)c2C1c1ccncc1 (stereo unspecified), the activity change, positive = activation is reported as 31.7%. In the case of Cc1ccccc1Nc1nnc(SCC2CCCCO2)s1 (stereo unspecified), the Potency is reported as active: 11.2 µM. In the case of COc1ccc(-c2cc(=O)c3cc(OC)ccc3[nH]2)cc1, the Potency is reported as active: 2.51 µM. In the case of O=C(NCc1ccccn1)c1nn(-c2ccccc2F)nc1CO, the “activity change, positive = activation” value is reported as inactive: -50.9%. For Cc1ccc(NC(=O)CCn2nc([N+](=O)[O-])cc2C)nc1, the “activity change, positive = activation” value was inactive: 7.17%. Work on Cc1nnc2sc(-c3ccco3)nn12 yielded an activity change, positive = activation of 43.5%. With CCOC(=O)c1c(C)[nH]c(C(=O)Nc2ccc(C)c(Cl)c2)c1C the Potency was active: 11.2 µM. With O=C(CSc1nnc(Cc2ccccc2)o1)N1CCCC1 the activity change, positive = activation was 35.8%. For Cn1c(CN2CCOCC2)nc2cc(NC(=O)c3ccccc3Cl)ccc21, the activity change, positive = activation was -37%. For O=C(Nc1nccs1)C(c1ccccc1)N1CCCC1 (stereo unspecified), the “activity change, positive = activation” value was inactive: 2.89%. Compound COc1ccc(C(=O)NC(=S)Nc2ccc(N3CCOCC3)c(Cl)c2)cc1[N+](=O)[O-] has an activity change, positive = activation of -65%. With CCOC(=O)N1CCN(Cc2nc(N)nc(Nc3ccc(Oc4ccccc4)cc3)n2)CC1 the activity change, positive = activation was -67.4%. For CC1CCN(S(=O)(=O)c2ccc(NC(=O)CSc3ncccc3C(=O)O)cc2)CC1, the activity change, positive = activation was 23.4%. With COc1ccccc1NC(=O)C(=O)Nc1ccccn1 the Potency was active: 15.8 µM. Compound COC(Cc1nnc(SC)n1-c1ccc(Cl)cc1)OC has an activity change, positive = activation of 15.4%. With Cc1cccc(NC(=S)N(CCCN2CCCC2)Cc2cccn2Cc2ccc(Cl)cc2)c1 the activity change, positive = activation was -78.4%. For C/C(=N\NC(=O)COc1ccccc1-c1ccccc1)c1ccccn1, the “activity change, positive = activation” value was inactive: -58.3%. CCOC(=O)CSC1=C(C#N)C(c2ccccc2C)C2=C(CCCC2=O)N1 (stereo unspecified) gave an activity change, positive = activation of 54%. In the case of COc1ccc(-c2noc(CN(C(=O)c3c(-c4ccccc4Cl)noc3C)C(C)C)n2)cc1, the activity change, positive = activation is reported as -48.8%. With CC(=O)Nc1nc(-c2ccc3c(c2)CCN3S(C)(=O)=O)cs1 the Potency was active: 10 µM. For CCOc1ccc(NC(=O)COc2nsnc2N2CCCCC2)cc1, the “activity change, positive = activation” value was inactive: -31.8%. Compound Cc1ccc(-c2nnn(CC(=O)N(c3ccccc3)C(C(=O)NC3CCCC3)c3ccco3)n2)o1 (stereo unspecified) has an activity change, positive = activation of 37.9%. CCOC(=O)c1c(-c2cccc([N+](=O)[O-])c2)csc1NC(=O)CCCOc1ccccc1OC gave an activity change, positive = activation of -31.3%. With CS(=O)(=O)Nc1ccccc1C(=O)O the activity change, positive = activation was 45.2%. c1ccc(CSc2n[nH]c(-c3ccco3)n2)cc1 showed an activity change, positive = activation of 61.3%. For CCCCN(C(=O)CSc1nnc(Nc2ccccc2)s1)c1c(N)n(CCC)c(=O)[nH]c1=O, the activity change, positive = activation was 44.9%. For Cc1ccc(Nc2nc3ccccc3s2)cc1, the Potency was active: 2.82 µM. For CCCCNc1nc(C)nc2c1nc(-c1ccccc1)n2CCN1CCCCC1, the “activity change, positive = activation” value was inactive: -30.3%.

Source: PubChem BioAssay AID1458 (National Center for Advancing Translational Sciences (NCATS), 2008)
Potency is the fitted concentration of half-maximal effect.
